Several values for one entry are separate records, joined by “and”; a condition that tells them apart may be missing. Equal values may be shown once. Hit rate of the full screen: of about 320,000 compounds, about 22,000 (6.9%) were called active. This list was built around the results that the source calls inconclusive (neither active nor inactive); the mix of calls is not that of the screen. The call rests on the fitted dose curve; in most records, active means well fitted inhibition curve with a large enough effect; inconclusive means small, poorly fitted or top-dose-only effect, or another doubt; inactive means no such curve, though single readings can be large or run the other way. Potencies beside an inconclusive call are fits to weak or partial responses and may not hold up.
Assay: Primary qHTS for delayed death inhibitors of the malarial parasite plastid, 96 hour incubation
Conditions: P. falciparum luciferase reporter growth; series mostly up to 28.7 µM; activity change, negative = inhibition: at the top concentration
In short: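 P. falciparum expressing integrated firefly luciferase grown in erythrocytes (2% hematocrit, 0.05% parasitemia final) with compounds for 96 hours at 37 C, 5% CO2. Growth inhibition read as loss of luminescence after adding luciferase detection reagent.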
On the % scale 0 is the no-effect control and ±100 the full control effect; potency means the concentration at half of the fitted maximal effect.

SMILES | activity change, negative = inhibition | Potency
CC(Sc1nnnn1-c1ccc(Cl)cc1)C(=O)NCC(=O)Nc1ccc(F)c(F)c1F (stereo not drawn) | inactive: 22.4% | 
O=C(NC1CCCCCCC1)c1cc(-c2ccccn2)nc2ccccc12 |  | inconclusive: 3.29 µM [inhibitor, single point]
O=C(CCc1ccc(S(=O)(=O)N2CCOCC2)cc1)N1CCc2ccccc2C1 |  | inconclusive: 18.5 µM [inhibitor, single point]
COc1ccc(-c2ccnc3nc(Sc4ncc(C(F)(F)F)cc4Cl)nn23)cc1 |  | inconclusive: 18.5 µM [inhibitor, single point]
COc1ccc(C(=O)c2c3ccc(OC)cc3[n+]([O-])n2Cc2ccc(C(N)=O)cc2)cc1 |  | inconclusive: 18.5 µM [inhibitor, single point]
O=C(CCNC(=O)Cn1ccc2ccccc2c1=O)NCCc1ccc(Cl)cc1 |  | inconclusive: 13.1 µM [inhibitor, single point]
COc1ccc(CN2CCCCC2c2cccnc2)cc1C (stereo not drawn) | inactive: 26.6% | 
CCN1CCC(NC(=O)Nc2ccccc2C(=O)OC)CC1 |  | inconclusive: 13.1 µM [inhibitor, partial curve, poor fit]
COc1ccc(-n2cccc2/C=C2\C(=N)N3N=C(C(C)C)SC3=NC2=O)cc1 |  | inconclusive: 7.38 µM [inhibitor, partial curve, poor fit]
CCN(C(=O)c1ccc2c(Cl)c3c(nc2c1)CCC3)c1cccc(C)c1 |  | inconclusive: 18.5 µM [inhibitor, single point]
CC(C)CN(C(=O)CN(C)S(=O)(=O)c1ccc(Cl)cc1)C1CCS(=O)(=O)C1 (stereo not drawn) |  | inconclusive: 13.1 µM [inhibitor, single point]
COc1ccc(-c2cc(-c3cccs3)nc3sc(C#N)c(N)c23)cc1 |  | inconclusive: 10.4 µM [inhibitor, partial curve, poor fit]
Cc1cccc(C(=O)O/N=C/c2c(N3CCOCC3)n(C)c3ccccc23)c1 |  | active: 1.85 µM
O=C(CO/N=C/c1ccccc1OC(F)F)NC1CCCC1 |  | inconclusive: 1.85 µM [inhibitor, single point]
CCCn1c(=O)c2c(nc3n2CCS3)n(C)c1=O |  | inconclusive: 13.1 µM [inhibitor, single point]
CC(=O)[C@@]1(O)CC[C@H]2[C@@H]3CCC4=CC(=O)CC[C@]4(C)[C@H]3CC[C@@]21C |  | inconclusive: 13.5 µM [inhibitor, single point] and inconclusive: 13.1 µM [inhibitor, partial curve, poor fit]
O=C(O)c1ccc(COc2c(F)c(F)c(F)c(F)c2F)o1 | inactive: 116% | 
COCCCNC(=O)Cn1cnc2sc(C)c(S(=O)(=O)N3CCN(c4ncccn4)CC3)c2c1=O | inactive: 63.4% | 
CCN(CC)c1ccc(C(=O)n2cnc3ccccc32)cc1 | inactive: -19.5% | 
CC(=O)Nc1nnc(-c2ccc3c(c2)CCCC3)o1 |  | inconclusive: 18.5 µM [inhibitor, single point]
CCOc1ccc(C(=O)n2cc(C(=O)OC)c3ccccc32)cc1 | inactive: 4.36% | 
CCn1c2ccccc2c2nnc(SCC(=O)N3CC(C)OC(C)C3)nc21 (stereo not drawn) | inactive: -2.71% | 
COC(=O)c1ccc(COc2ccc3ccc(=O)oc3c2)o1 | inactive: 31.9% | 

SMILES | activity change, negative = inhibition | Potency
COc1ccc(CNC(=O)c2ccccc2SCC(=O)N2CCCC2)cc1OC | inactive: -0.119% | 
Cc1csc(NC(=O)CCCC(=O)c2ccccc2)n1 |  | inconclusive: 20.8 µM [inhibitor, single point]
N#Cc1c(Cl)nc2c(c1C#N)CCCC2 | inactive: -6.62% | 
COc1ccc(C(=O)Nc2cccc3c2CCCC3)cc1OC |  | inconclusive: 11.7 µM [inhibitor, single point]
Cc1noc(C)c1COC(=O)c1ccccc1NC(=O)Cc1ccccc1 |  | inconclusive: 18.5 µM [inhibitor, single point]
Cc1cccc(OCCC(=O)Nc2cc(S(=O)(=O)N3CCCCC3)ccc2N2CCOCC2)c1 |  | inconclusive: 18.5 µM [inhibitor, single point]
c1ccc(-c2nnc(-c3ccccc3)c(-c3c[nH]c4ccccc34)n2)cc1 | inactive: 6.14% | 
CCc1ccccc1NC(=O)CCC(=O)N1CCSc2ccccc21 |  | active: 4.15 µM
O=C(C1=C(c2ccccc2)C(=O)c2ccccc2C1=O)c1ccccc1 | inactive: 27.7% | 
CC(C)c1nccn1S(=O)(=O)c1cccc([N+](=O)[O-])c1 | inactive: 38.7% | 
COC(=O)CCCC1=CC2=C(c3ccccc3)C(=O)C(C)(OC(=O)C3CCCC3)C(=O)C2=CN1Cc1ccco1 (stereo not drawn) |  | active: 11.7 µM
O=C(Nc1ccccc1-c1nnn(CC(=O)N2CCc3ccccc3C2)n1)C1CCC1 |  | inconclusive: 1.85 µM [inhibitor, partial curve, poor fit]
COc1ccc(C(=O)N/N=C(\Cc2ncc[nH]2)c2ccccc2)cc1 |  | inconclusive: 3.7 µM [inhibitor, partial curve, poor fit]
CC(C)C[C@H](NC(=O)c1cc2cc(Cl)ccc2n1C)C(=O)N1CCC[C@H]1C(=O)O |  | inconclusive: 13.1 µM [inhibitor, single point]
Cc1c(C(=O)C(=O)N2CC=C(c3ccccc3)CC2)c2ccccc2n1C |  | inconclusive: 0.37 µM [inhibitor, partial curve, poor fit]
Cc1cc(N2CCN(C/C=C/c3ccccc3)CC2)n2ncnc2n1 |  | inconclusive: 3.29 µM [inhibitor, partial curve, poor fit]
CCOC(=O)CNC(=O)COc1coc(CN2CCN(c3ccccc3)CC2)cc1=O |  | inconclusive: 10.4 µM [inhibitor, single point]
COc1ccccc1C/C(N)=N/OC(=O)/C=C/c1ccccc1 |  | inconclusive: 0.185 µM [inhibitor, full curve, poor fit]
CCOc1ccc(S(=O)(=O)n2cc(F)c(=O)[nH]c2=O)cc1 |  | active: 13.1 µM
COc1cc2c(cc1OC)C(C)N(C(=O)Cn1ncc3c1-c1cc(C)ccc1OC3)CC2 (stereo not drawn) |  | inconclusive: 4.15 µM [inhibitor, partial curve, poor fit]
Cc1cc(C)cc(NC(=S)N2CC(C)OC(C)C2)c1 (stereo not drawn) |  | active: 2.08 µM
O=C(CN(c1ccc(F)cc1)S(=O)(=O)c1ccccc1)NC1CCCCCC1 |  | inconclusive: 10.4 µM [inhibitor, single point]
COc1cccc(-c2nnc(SCC3CNC(=O)O3)n2-c2ccc(Cl)cc2)c1 (stereo not drawn) |  | inconclusive: 0.465 µM [inhibitor, full curve, poor fit]

SMILES | activity change, negative = inhibition | Potency
COc1ccc(-n2c(Cc3cccn3C)nnc2SCC(=O)Nc2cc(C)cc(C)c2)cc1 |  | inconclusive: 18.5 µM [inhibitor, single point]
CCOC(=O)c1ccc(NC(=O)C(=O)NCc2ccccn2)cc1 | inactive: 19.1% | 
CN(C)c1ccc(P(=O)(COc2ccc([N+](=O)[O-])cc2)c2ccc(N(C)C)cc2)cc1 |  | inconclusive: 13.1 µM [inhibitor, partial curve, poor fit]
CCn1cc([N+](=O)[O-])c(C(=O)NCc2ccc3c(c2)OCO3)n1 |  | inconclusive: 0.0037 µM [inhibitor, full curve, poor fit]
NC(=O)c1ccc(NCC2CCCO2)c([N+](=O)[O-])c1 (stereo not drawn) | inactive: -1.91% | 
CC(C)C[C@@H](CN(N=O)[C@@H](Cc1ccccc1)CN(C)N=O)N(CCc1ccccc1)N=O |  | inconclusive: 10.4 µM [inhibitor, single point]
Cc1ccc(C)c(S(=O)(=O)NCc2ccc(C(=O)N3CCN(c4ccccc4)CC3)cc2)c1 | inactive: -30.9% | 
CN(C)c1ccnc(Oc2ccc(Cl)cc2)c1C#N |  | inconclusive: 0.0026 µM [inhibitor, full curve, poor fit]
CCc1nnc(NC(=O)CSc2nnc(CNc3cccc(C)c3)n2-c2ccccc2)s1 |  | inconclusive: 14.7 µM [inhibitor, partial curve, poor fit]
CC1Cc2cc(/C=C3/SC(N4CCC(C(N)=O)CC4)=NC3=O)ccc2O1 (stereo not drawn) |  | inconclusive: 1.17 µM [inhibitor, full curve, poor fit]
COC(=O)c1[nH]c2ccc(C)cc2c1NC(=O)Nc1ccc(OC)cc1 | inactive: 47.4% | 
COc1ccccc1-c1nc(SCC(=O)Nc2ccccc2F)n[nH]1 |  | inconclusive: 18.5 µM [inhibitor, single point]
N#Cc1ccccc1Cn1c(=O)n(Cc2ccc(C(=O)NCc3ccco3)cc2)c(=O)c2ccccc21 | inactive: 81% | 
CCOC(=O)C1=C(C)N(CCCCCC(=O)O)C(=O)NC1c1ccc([N+](=O)[O-])cc1 (stereo not drawn) |  | inconclusive: 2.62 µM [inhibitor, full curve]
CCN(CC)C(=O)c1[nH]cnc1C(=O)NCC(=O)OCc1ccccc1 | inactive: 0% | 
CCOc1ccc(-c2noc(-c3cccnc3)n2)cc1OCC | inactive: -63.4% | 
COc1ccccc1NC(=O)Cn1c(C)cc(=O)c2cccc(OC)c21 |  | inconclusive: 9.28 µM [inhibitor, single point]
Cc1ccc(NC(C)C(=O)N/N=C/c2ccc([N+](=O)[O-])s2)cc1 (stereo not drawn) |  | active: 14.7 µM
COc1cc(C#N)ccc1OCC(=O)c1ccc2c(c1)OCCO2 |  | inconclusive: 7.38 µM [inhibitor, partial curve, poor fit]
CCCn1cc(S(=O)(=O)c2ccc(OC)cc2)c(=O)c2cc(OCC)ccc21 |  | inconclusive: 13.1 µM [inhibitor, single point]
COc1cc(O)c(C(CC(=O)N2CCCC(C)C2)c2ccc3c(c2)OCO3)c(OC)c1 (stereo not drawn) |  | inconclusive: 18.5 µM [inhibitor, single point]
COc1ccc(C2CC(=O)C3=C(C2)Nc2ncnn2C3c2ccccc2C)c(OC)c1 (stereo not drawn) |  | active: 8.28 µM

4 entries out of the list, sorted by length of the SMILES, falling.
SMILES | activity change, negative = inhibition | Potency
COc1ccccc1NC(=O)Cn1c(C)cc(=O)c2cccc(OC)c21 |  | inconclusive: 9.28 µM [inhibitor, single point]
CCOC(=O)c1ccc(NC(=O)C(=O)NCc2ccccn2)cc1 | inactive: 19.1% | 
COC(=O)c1ccc(COc2ccc3ccc(=O)oc3c2)o1 | inactive: 31.9% | 
O=C(CO/N=C/c1ccccc1OC(F)F)NC1CCCC1 |  | inconclusive: 1.85 µM [inhibitor, single point]

Source: PubChem BioAssay AID504834 (National Center for Advancing Translational Sciences (NCATS), 2011)
